Experimental data: PubChem BioAssay AID1259405 (NCATS, 2018)
Purpose: 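Silenced genes that increase secreted GFP made by CHO cells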 (primary screen). Cells: Chinese hamster CHO-K1 ovary cells with stable secreted eGFP expression. Reagents: single siRNA against mouse genes, 0.8 pmol siRNA per well (2 µl of 400 nM stock). Duration: 3 days. Measurement: 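Per-well intracellular GFP measured by laser scanning cytometry, plus viability from ATP luminescence, each relative to plate median of non-targeting control wells, in %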. Scale: GFP, % of control: higher = more GFP per well, higher productivity; viability (ATP), % of control: higher = more viable cells (more ATP). Call rule: 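Called active when intracellular GFP, relative to negative control, is at or above 120%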.
In all, the deposit lists about 50,000 reagents; this is a part drawn at random. About 4,000 of all reagents (8%) were called active. 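Mouse siRNA library applied to hamster cells; one well for each siRNA.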 Reagents against one gene are numbered here.

target | reagent | GFP, % of control | viability (ATP), % of control | Call
Fkbp3 (GeneID 30795) | 1 | 45.2 | 71.1 | inactive
Fkbp3 (GeneID 30795) | 2 | 89.8 | 91.9 | inactive
Fkbp3 (GeneID 30795) | 3 | 114 | 120 | inactive
Or5w20 (GeneID 258633) | 1 | 157 | 52 | active
Or5w20 (GeneID 258633) | 2 | 77.8 | 90.8 | inactive
Or5w20 (GeneID 258633) | 3 | 46.3 | 53 | inactive
Nxt1 (GeneID 56488) | 1 | 47.2 | 27.6 | inactive
Nxt1 (GeneID 56488) | 2 | 52.2 | 79.5 | inactive
Nxt1 (GeneID 56488) | 3 | 38.9 | 48 | inactive
Cphx1 (GeneID 105594) | 1 | 73.5 | 102 | inactive
Cphx1 (GeneID 105594) | 2 | 64.2 | 49.8 | inactive
Cphx1 (GeneID 105594) | 3 | 128 | 102 | active
Nabp2 (GeneID 69917) | 1 | 142 | 87.5 | active
Nabp2 (GeneID 69917) | 2 | 91.8 | 61.6 | inactive
Nabp2 (GeneID 69917) | 3 | 51.8 | 46.8 | inactive
Paxx (GeneID 227622) | 1 | 30.7 | 32.8 | inactive
Paxx (GeneID 227622) | 2 | 80.5 | 78.6 | inactive
Paxx (GeneID 227622) | 3 | 92.5 | 110 | inactive
Rgs12 (GeneID 71729) | 1 | 52.9 | 49 | inactive
Rgs12 (GeneID 71729) | 2 | 75.4 | 83.4 | inactive
Rgs12 (GeneID 71729) | 3 | 81.2 | 75.3 | inactive
Dot1l (GeneID 208266) | 1 | 144 | 91.3 | active
Dot1l (GeneID 208266) | 2 | 45.3 | 104 | inactive
Dot1l (GeneID 208266) | 3 | 89.4 | 107 | inactive
Nlrp4e (GeneID 446099) | 1 | 59 | 57.2 | inactive
Nlrp4e (GeneID 446099) | 2 | 90 | 85.1 | inactive
Nlrp4e (GeneID 446099) | 3 | 70.6 | 69.5 | inactive
1110059G10Rik (GeneID 66202) | 1 | 71.6 | 95.2 | inactive
1110059G10Rik (GeneID 66202) | 2 | 60.5 | 81.4 | inactive
1110059G10Rik (GeneID 66202) | 3 | 83.4 | 90.6 | inactive
Ccr5 (GeneID 12774) | 1 | 93.3 | 68 | inactive
Ccr5 (GeneID 12774) | 2 | 105 | 89.8 | inactive
Ccr5 (GeneID 12774) | 3 | 84.5 | 75.9 | inactive
Nufip2 (GeneID 68564) | 1 | 78.9 | 79.2 | inactive
Nufip2 (GeneID 68564) | 2 | 63.2 | 80.4 | inactive
Nufip2 (GeneID 68564) | 3 | 57.5 | 59 | inactive
Clip4 (GeneID 78785) | 1 | 89.1 | 78.4 | inactive
Clip4 (GeneID 78785) | 2 | 78.3 | 83.1 | inactive
Clip4 (GeneID 78785) | 3 | 89.3 | 65.1 | inactive
Pnma1 (GeneID 70481) | 1 | 78.5 | 143 | inactive
Pnma1 (GeneID 70481) | 2 | 81.6 | 102 | inactive
Zfp11 (GeneID 22648) | 1 | 74.5 | 47.1 | inactive
Zfp11 (GeneID 22648) | 2 | 75.8 | 79.6 | inactive
Zfp11 (GeneID 22648) | 3 | 68.4 | 79.6 | inactive
Krtap4-2 (GeneID 68673) | 1 | 49.8 | 58 | inactive
Krtap4-2 (GeneID 68673) | 2 | 67.7 | 83.5 | inactive
Krtap4-2 (GeneID 68673) | 3 | 64.4 | 90.3 | inactive
Spp1 (GeneID 20750) | 1 | 109 | 134 | inactive
Spp1 (GeneID 20750) | 2 | 96.1 | 90.8 | inactive
Or2f2 (GeneID 258207) | 1 | 63.6 | 67.6 | inactive
Or2f2 (GeneID 258207) | 2 | 221 | 71.4 | active
Or2f2 (GeneID 258207) | 3 | 64.6 | 66.2 | inactive
Dppa3 (GeneID 73708) | 1 | 102 | 88.4 | inactive
Dppa3 (GeneID 73708) | 2 | 137 | 110 | active
Dppa3 (GeneID 73708) | 3 | 80.7 | 82.1 | inactive
Lgals2 (GeneID 107753) | 1 | 42.9 | 50 | inactive
Lgals2 (GeneID 107753) | 2 | 36.1 | 34.4 | inactive
Lgals2 (GeneID 107753) | 3 | 63.7 | 70 | inactive
Rag2 (GeneID 19374) | 1 | 103 | 110 | inactive
Rag2 (GeneID 19374) | 2 | 80 | 86.1 | inactive
Rag2 (GeneID 19374) | 3 | 76.9 | 77.1 | inactive
Arcn1 (GeneID 213827) | 1 | 13.5 | 10.3 | inactive
Arcn1 (GeneID 213827) | 2 | 36.5 | 32.3 | inactive
Arcn1 (GeneID 213827) | 3 | 59.6 | 78.7 | inactive
Tcf12 (GeneID 21406) | 1 | 74.2 | 91.8 | inactive
Tcf12 (GeneID 21406) | 2 | 89.7 | 71.9 | inactive
Tcf12 (GeneID 21406) | 3 | 85.7 | 98.6 | inactive
Yap1 (GeneID 22601) | 1 | 101 | 64.4 | inactive
Yap1 (GeneID 22601) | 2 | 47.1 | 65.8 | inactive
Yap1 (GeneID 22601) | 3 | 96.2 | 106 | inactive
Zcchc7 (GeneID 319885) | 1 | 92.8 | 85.6 | inactive
Zcchc7 (GeneID 319885) | 2 | 80.6 | 34.1 | inactive
Zcchc7 (GeneID 319885) | 3 | 55.7 | 58.4 | inactive
Zcchc7 (GeneID 319885) | 4 | 72.6 | 64.3 | inactive
Zcchc7 (GeneID 319885) | 5 | 112 | 67.1 | inactive
Zcchc7 (GeneID 319885) | 6 | 74.1 | 101 | inactive
Zfp385a (GeneID 29813) | 1 | 111 | 99.8 | inactive
Zfp385a (GeneID 29813) | 2 | 86.5 | 99.6 | inactive
Zfp385a (GeneID 29813) | 3 | 57 | 64.4 | inactive
Nox4 (GeneID 50490) | 1 | 65.9 | 77.5 | inactive
Nox4 (GeneID 50490) | 2 | 89.9 | 72.1 | inactive
Nox4 (GeneID 50490) | 3 | 21.3 | 35.6 | inactive
Fam220a (GeneID 67238) | 1 | 73.9 | 69 | inactive
Fam220a (GeneID 67238) | 2 | 68.5 | 63.9 | inactive
Fam220a (GeneID 67238) | 3 | 89 | 83.2 | inactive
Selenom (GeneID 114679) | 1 | 47.7 | 32.2 | inactive
Selenom (GeneID 114679) | 2 | 79 | 68 | inactive
Selenom (GeneID 114679) | 3 | 62.1 | 69.1 | inactive
Retsat (GeneID 67442) | 1 | 79.1 | 48 | inactive
Retsat (GeneID 67442) | 2 | 66.2 | 97.6 | inactive
Retsat (GeneID 67442) | 3 | 86.9 | 87.5 | inactive
Ywhae (GeneID 22627) | 1 | 67 | 78.3 | inactive
Ywhae (GeneID 22627) | 2 | 33.3 | 36.1 | inactive
Ywhae (GeneID 22627) | 3 | 83.4 | 61 | inactive
Kif23 (GeneID 71819) | 1 | 46.5 | 43.2 | inactive
Kif23 (GeneID 71819) | 2 | 72.3 | 80.1 | inactive
Kif23 (GeneID 71819) | 3 | 34 | 69.2 | inactive
Rad21 (GeneID 19357) | 1 | 116 | 61.3 | inactive
Rad21 (GeneID 19357) | 2 | 68.1 | 50.4 | inactive
Rad21 (GeneID 19357) | 3 | 157 | 49.1 | active
Rad21 (GeneID 19357) | 4 | 227 | 80.7 | active
Rad21 (GeneID 19357) | 5 | 223 | 88.5 | active
Rad21 (GeneID 19357) | 6 | 288 | 96.5 | active
A4galt (GeneID 239559) | 1 | 128 | 90.5 | active
A4galt (GeneID 239559) | 2 | 86.6 | 61.7 | inactive
A4galt (GeneID 239559) | 3 | 92.3 | 32.2 | inactive
Cnrip1 (GeneID 380686) | 1 | 32.7 | 55.8 | inactive
Cnrip1 (GeneID 380686) | 2 | 77.3 | 79.6 | inactive
Cnrip1 (GeneID 380686) | 3 | 101 | 46.2 | inactive
